Measured values reported in publication PMC4489591.

System: SrpR-6xHis
Experiment: EMSA
Details: salmon sperm DNA strongly decreased binding, not completely; recombinant protein; protein details: C-terminal 6xHis; label: unlabelled, SYBR Green stain

Row | Sequence | binding result
1 | TACTTATCTCCTGTGCACTCAAAGTGCTCTAACGGTTTTC (double strand) [R2-R4 (R4-R2)] | binds
2 | TGGCCACGCTTGGGCATTTCCAAGTGCTCTGGCGGTTCAC (double strand) [R1-R3 (R3-R1)] | binds

Construct, isoform or probe ends are uncertain for at least one entry.
